Test: 5 day use life study: antibiotic delivered through valve and adapter under simulated ventilator conditions (jet nebulizer, cloverleaf valve)
Conditions: for % CONTENT (%), Adapter / CONTENT [mg], Adapter: Final Adapter; for MEAN % CONTENT (%), Inspiratory / MEAN % CONTENT (%), Nebulizer / MEAN CONTENT [mg], Inspiratory / MEAN CONTENT [mg], Nebulizer: mean of Day 1, 3, 5
[1] = Device 8022B, in Quarter Normal Saline

Row | Compound | % CONTENT (%), Adapter (Device 8022A, in WFI) | CONTENT [mg], Adapter (Device 8022A, in WFI) | MEAN % CONTENT (%), Inspiratory (Device 8022A, in WFI) | MEAN % CONTENT (%), Nebulizer (Device 8022A, in WFI) | MEAN CONTENT [mg], Inspiratory (Device 8022A, in WFI) | CONTENT [mg], Nebulizer (Device 8022B, in Quarter Normal Saline, Day 1) | CONTENT [mg], Nebulizer (Device 8022B, in Quarter Normal Saline, Day 5) | % CONTENT (%), Adapter [1] | CONTENT [mg], Adapter [1] | MEAN % CONTENT (%), Nebulizer [1] | MEAN CONTENT [mg], Inspiratory [1] | MEAN CONTENT [mg], Nebulizer [1] | MEAN CONTENT [mg], Nebulizer (Device 8022A, in WFI) | % CONTENT (%), Adapter (Device 8022B, in WFI) | CONTENT [mg], Adapter (Device 8022B, in WFI) | MEAN % CONTENT (%), Inspiratory (Device 8022B, in WFI) | MEAN % CONTENT (%), Nebulizer (Device 8022B, in WFI) | MEAN CONTENT [mg], Inspiratory (Device 8022B, in WFI) | MEAN CONTENT [mg], Nebulizer (Device 8022B, in WFI)
1 | CN[C@H](CC(C)C)C(=O)N[C@H]1C(=O)N[C@@H](CC(N)=O)C(=O)N[C@H]2C(=O)N[C@H]3C(=O)N[C@H](C(=O)N[C@H](C(=O)O)c4cc(O)cc(O)c4-c4cc3ccc4O)[C@H](O)c3ccc(c(Cl)c3)Oc3cc2cc(c3O[C@@H]2O[C@H](CO)[C@@H](O)[C@H](O)[C@H]2O[C@H]2C[C@](C)(N)[C@H](O)[C@H](C)O2)Oc2ccc(cc2Cl)[C@H]1O [Vancomycin, vancomycin] | 0.5% | 2.7 mg | 16.1% | 37.2% | 96.6 mg | 275.9 mg | 290.3 mg | 0.1% | 0.3 mg | 44.5% | 72.5 mg | 266.9 mg | – | – | – | – | – | – | –
2 | gentamicin | 0.0% | 0.2 mg | 15.8% | 31.7% | 95.0 mg | – | – | – | – | – | – | – | 190.5 mg | 0.1% | 0.3 mg | 16.5% | 38.0% | 99.0 mg | 228.2 mg

— patent US20070083677A1, “Valves, devices, and methods for endobronchial therapy” (Nektar Therapeutics, priority 2005, published 2007)
